Laboratory results reported in paper PMC8396604.
No constants are given. Whether binding was seen depends on the method and setting. Binding seen in cells or lysates may run through a third protein. A yes stands for co-enrichment or nearness to the bait. Other partners may have been found.

The chains behind the UniProt entries cited, without tags or fusion partners.
UniProt P80206: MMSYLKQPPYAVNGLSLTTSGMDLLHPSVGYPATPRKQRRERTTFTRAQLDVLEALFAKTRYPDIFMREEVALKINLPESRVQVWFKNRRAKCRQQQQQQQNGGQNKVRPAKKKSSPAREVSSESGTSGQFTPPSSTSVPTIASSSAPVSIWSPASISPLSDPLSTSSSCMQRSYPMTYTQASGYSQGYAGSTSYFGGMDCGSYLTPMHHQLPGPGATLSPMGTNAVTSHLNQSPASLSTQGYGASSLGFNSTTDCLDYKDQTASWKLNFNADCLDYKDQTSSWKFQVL

B1: ARHGEF6 (protein, UniProt Q8K4I3 1-771)
chain: MNPEERLVTWLISLGVLESPKKTVCDPEEFLKSSLKNGVVLCKLINRLLPGSVEKYCLEPQTEADCIDNINDFLKGCATLQVEVFEPDDLYSGANFSKVLNTLLAVNKATEDQLSERPCGRSSSLSAATSSQTNPQVAVPSTAPEQHSEEKAEMTENGSHQLIVKARFNFKQTNEDELSVCKGDIIYVTRVEEGGWWEGTLNGRTGWFPSNYVREIKPSERPLSPKAIKGFDTAPLTKNYYTVVLQNILDTEKEYAKELQSLLVTYLRPLQSNNNLSTVEFTCLLGNFEEVCTFQQTLCQALEECSKFPENQHKVGGCLLNLMPHFKSMYLAYCANHPSAVNVLTQHSDDLERFMENQGASSPGILILTTSLSKPFMRLEKYVTLLQELERHMEDTHPDHQDILKAIIAFKTLMGQCQDLRKRKQLELQILSEPIQAWEGDDIKTLGNVIFMSQVVMQHGACEEKEERYFLLFSSVLIMLSASPRMSGFMYQGKIPIAGMVVNRLDEIEGSDCMFEITGSTVERIVVHCNNNQDFQEWMEQLNRLTKGPTSCGSLSKTSSSSCSTHSSFSSTGQPRGPLEPPQIIKPWSLSCLRPAPPLRPSAALGYKERMSYILKESSKSPKTMKKFLHKRKTERKASEEEYVIRKSTAALEEDAQILKVIEAYCTSASFQQGTRKDSVPQVLLPEEEKLIIEETRSNGQTIIEEKSLVDTVYALKDEVKELKQENKKMKQCLEEELKSRKDLEKLVRKLLKQTDECIRSESSSKTSILQ
B2: STRAP (protein, UniProt Q9Z1Z2 1-350)
chain: MAMRQTPLTCSGHTRPVVDLAFSGITPYGYFLISACKDGKPMLRQGDTGDWIGTFLGHKGAVWGATLNKDATKAATAAADFTAKVWDAVSGDELMTLAHKHIVKTVDFTQDSNYLLTGGQDKLLRIYDLNKPEAEPKEISGHTSGIKKALWCSDDKQILSADDKTVRLWDHATMTEVKSLNFNMSVSSMEYIPEGEILVITYGRSIAFHSAVSLEPIKSFEAPATINSASLHPEKEFLVAGGEDFKLYKYDYNSGEELESYKGHFGPIHCVRFSPDGELYASGSEDGTLRLWQTVVGKTYGLWKCVLPEEDSGELAKPKIGFPETAEEELEEIASENSDSIYSSTPEVKA
B3: TJP2 (protein, UniProt Q9Z0U1 1-1167)
chain: MEEVIWEQYTVTLQKDSKRGFGIAVSGGRDNPHFENGETSIVISDVLPGGPADGLLQENDRVVMVNGTPMEDVLHSFAVQQLRKSGKIAAIVVKRPRKVQVAPLQGSPPLSHDDRGFEVIEEFDGRSFRSGYSERSRHSSHDMLSHSWEGNRERGRPHQRTQSRERERSRGRSLERGLDQEDYGRSRERSRGRSLERGLDRDFVSRDHSRGRSIDRDYDRDYERSYHEAYEPDYGGGYSPSYDRRAHPETRYERSRSREHLRSRSPSPESRSRHEHKGQHDPDRPIGVLLTKSKANEEYGLRLGSQIFIKEMTRTGLATKDGNLHEGDIILKINGTVTENMSLTDARKLIEKSRGKLQLVVLRDSKQTLINIPALNDSDSEVEDISEIESNRSFSPEERRQQYSDQDYHSSTEKLKERPSSREETSGRLSRMGATPTPFKSTGDITAAGVTEASREPRYQEEGPVPQPRTAPRVFLRPSPEDEAIYGPNTKMVRFKKGDSVGLRLAGGNDVGIFVAGIQEGTSAEQEGLQEGDQILKVNTQDFRGLVREDAVLYLLEIPKGETVTILAQSRADVYRDILACGRGDSFFIRSHFECEKETPQSLAFTRGEVFRVVDTLYDGKLGHWLAVRIGNELEKGLIPNKSRAEQMASVQNAQRENAGDRADFWRMRGQRSSGGVKKNLRKSREDLAAAVSVSTKFPAYEKVLLREAGFKRPVVLFGPIADIAMERLATELPDLFQTAKTEPKDAGSEKSSGVVRLNTVRQIIEQDKHALLDVTPKAVDLLNYTQWFPIVIFFNPDSRQGVKTIRQRLSPTSNKSSRKLFDQANKLKKTCSHLFTATINVNSANDGWFGSLKDSIQQQQNEAVWVSEGKMEGMDDDAEDRMSYLTAMGADYLSCDSRLISDFEDTDGEGGAYTDNELEEPAEEPLVSSITRSSEPVQHEENIRKSSPEPRAQMRRAASRDQLRDASPPPAFKPEPPKARSQNREDSFDYSKSNLPATAGSEIPGGSTKGYPPPIAAKPAFGRPILKPSTPVPMPESEEVGESTEEQEDAPRSVLGRVKIFEKMDHKAKLQRMQELQEAQNARIEIAQKHPDIYAVPIKAPKPDAGLPPHMSSRPPEPQKAPSRLYQDTRGSYGSDPEEEEYRQQLAAHSKRGYYSQPSRYRDTEL

These binders were tested against OTX2 homeoprotein (mouse (endogenous in adult mouse brain tissue)) (UniProt P80206) (assay: affinity purification with mass spectrometry; anti-OTX2 (ab21990) coupled to magnetic beads, lysate of pooled LV and 4V choroid plexus from four 3-month-old mice; 100 mM Tris pH 7.5, 1 mM EDTA, 100 mM NaCl, 1% NP40, 1 mM MgCl2, benzonase; 4 °C overnight; IgG co-IP as control; nano-LC-MS/MS; N = 3).

binding | Binder
binds | B1
binds | B2
binds | B3
